Here are results for 110 sequences from the supplement of paper PMC3334620.

Whole data set: some 33,000 sequences, median “E-score (-0.5 to 0.5)” near -0.0059, cut for the highest 2% near 0.26. This is one part of the list.

The experiment has as its target T1, Cin5 (UniProt P40917).
T1 sequence: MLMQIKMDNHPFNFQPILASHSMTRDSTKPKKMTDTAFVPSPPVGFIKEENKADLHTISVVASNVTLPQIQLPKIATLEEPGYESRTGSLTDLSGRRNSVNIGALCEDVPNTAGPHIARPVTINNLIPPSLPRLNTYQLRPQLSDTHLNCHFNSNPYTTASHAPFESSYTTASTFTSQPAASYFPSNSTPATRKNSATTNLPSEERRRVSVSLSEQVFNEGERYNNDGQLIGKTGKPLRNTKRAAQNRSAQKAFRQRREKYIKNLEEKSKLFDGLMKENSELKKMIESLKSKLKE
The experiment is described as follows: PBM E-score (8-mer binding enrichment) (E-score (-0.5 to 0.5)); higher = stronger / more preferred TF binding. To be noted: protein concentration: 100 nM; construct: GST-full length. The procedure, abridged: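 Each ungapped eight-base word and its reverse complement, pooled, received an E-score from the Universal PBM Analysis Suite. Underlying scans, normalised with masliner, recorded fluorescent anti-GST bound to GST-tagged yeast transcription factors. These were applied at about 100-200 nM to universal all-10-mer Agilent arrays double-stranded by primer extension.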
Take AAAGAAAT: the “PBM E-score” value was found to be 0.241.
Under CACTTACA stands 0.127; under CCCTATCC, -0.137; under GCTGTCGA, -0.0741.
For the sequence GTCGGAAA, the “PBM E-score” value came out at 0.213.
To GTGTACTA belongs 0.0665; to GCGCCGCC, -0.00584.
Take ATTCTACG: the “PBM E-score” value turned out to be 0.0916.
Under GTAAGGTA stands 0.0728; under ACAGGTCA, -0.106.
With CTCGGGTA, the “PBM E-score” value was -0.141.
Turning to ACAGCGCC, the “PBM E-score” value is -0.0832.
On to AAGACCTA, for which the “PBM E-score” value is -0.111.
Under CGCCCGTC stands -0.0048.
On to AATACGGG, for which the “PBM E-score” value is -0.0914.
For GAGTTCCC, the “PBM E-score” value is -0.18.
For the sequence AGAGTATA, the “PBM E-score” value worked out at 0.0252.
ATGAGCCG: the “PBM E-score” value is -0.0886.
On to ACCTTCTG, for which the “PBM E-score” value amounted to 0.112.
With AGAGGAAT, the “PBM E-score” value worked out at 0.0108.
Consider GATGCGTA, for which the “PBM E-score” value came to 0.0728.
As to CAGTTCTC, the “PBM E-score” value was -0.0187.
As for ATGCCCTG, the “PBM E-score” value was -0.12.
To CAAGCTTG belongs 0.0243.
In the case of ACATAATC, the “PBM E-score” value came to 0.445.
To AGACTTTC belongs -0.0091.
For CTATCTCA, the “PBM E-score” value was -0.00021.
To AAACCCCC belongs -0.466.
In the case of GCGTATAA, the “PBM E-score” value worked out at 0.133.
Turning to GTAGACAA, the “PBM E-score” value amounted to 0.12.
Regarding CATATTCG, the “PBM E-score” value is -0.0012.
For AGTTTGTC, the “PBM E-score” value stood at 0.0207.
Consider ACGGTATG, for which the “PBM E-score” value was 0.0664.
To AGTTACCG belongs 0.02; to ATCGCTAC, -0.00633; to AAATCAAA, 0.175.
With TGAACCAA, the “PBM E-score” value is 0.145.
Turning to CTGATCCA, the “PBM E-score” value was 0.0973.
Consider ACATCAAG, for which the “PBM E-score” value stood at 0.155.
As for ATCTATAG, the “PBM E-score” value worked out at 0.0365.
For the sequence AACTCCGG, the “PBM E-score” value was 0.0824.
Consider GAGTGCTA, for which the “PBM E-score” value amounted to 0.0563.
Under CGCGCTCC stands 0.0914; under GCGGGTCC, -0.257.
As for CGTCCTTA, the “PBM E-score” value is -0.216.
To GCTATTCC belongs -0.051; to AACAAGCC, -0.13.
Turning to AAAGAGCG, the “PBM E-score” value worked out at 0.0467.
For the sequence GCCCCACA, the “PBM E-score” value was -0.043.
GAAGGAGC: the “PBM E-score” value is -0.468.
As for ACATCTGG, the “PBM E-score” value is -0.00408.
Regarding CTCCACGA, the “PBM E-score” value is -0.211.
As to ATGCCTTG, the “PBM E-score” value was -0.0648.
As for CCAGGGCG, the “PBM E-score” value is -0.387.
To GAATTGAC belongs 0.0301; to AATATAGG, 0.317.
Under TCGAACAA stands 0.21.
As to CGTGGGAC, the “PBM E-score” value is -0.0734.
To CTGGCTCA belongs 0.0435.
Under ACCTCCTC stands -0.208; under GAATCTCC, -0.0861.
For the sequence CCCTTCTC, the “PBM E-score” value is -0.306.
Regarding CGCATCGC, the “PBM E-score” value was -0.195.
Turning to CCGAAAGA, the “PBM E-score” value was 0.0644.
Regarding CTTGTGTA, the “PBM E-score” value stood at 0.184.
As for ATTGATGG, the “PBM E-score” value is 0.159.
As for CGACGGAG, the “PBM E-score” value came out at 0.0422.
In the case of CACCGGTG, the “PBM E-score” value was -0.184.
To CCTACGAA belongs -0.0315.
Under GAAGGTCA stands -0.153; under CCGTTCAC, -0.0806; under CAGCGCGG, 0.107.
For ATCGTCGC, the “PBM E-score” value turned out to be 0.0797.
With ATCCTCCG, the “PBM E-score” value is -0.187.
Consider CGACACTC, for which the “PBM E-score” value is -0.0648.
As to GACAATAA, the “PBM E-score” value amounted to 0.19.
Take CTAGTAAC: the “PBM E-score” value turned out to be 0.0514.
For GACCCGCA, the “PBM E-score” value was -0.134.
Turning to CCTACTCC, the “PBM E-score” value was -0.0286.
As for GCGCTCCA, the “PBM E-score” value is -0.152.
As for ACGTACTA, the “PBM E-score” value came to 0.102.
To CGATTCTC belongs 0.0299; to GAGGGGAA, -0.0452; to ATCAATGA, 0.172.
To AGACCCCT belongs -0.186.
As to GGCCCACC, the “PBM E-score” value was -0.225.
As for ACGGGCCC, the “PBM E-score” value is -0.211.
Take CGGACGAA: the “PBM E-score” value came to 0.15.
Consider GGACTTGA, for which the “PBM E-score” value was -0.23.
For the sequence ATTCTTGG, the “PBM E-score” value came out at 0.153.
Under ATTAAACC stands 0.178; under GTTAATGA, 0.114.
Under CGACAGCC stands -0.0433; under AAGACATC, -0.181; under CACGCAGG, 0.00917.
To TAGCGTCA belongs 0.0184; to CCGGCCGA, -0.195; to CAGCCCCG, -0.0863.
With CCATAGCC, the “PBM E-score” value was -0.165.
Consider CACTCTTC, for which the “PBM E-score” value is -0.0303.
For ATCGGCAT, the “PBM E-score” value is 0.108.
To CAGTTGCA belongs -0.123; to GTAGCAAA, 0.126.
On to CATGTTAC, for which the “PBM E-score” value was determined as 0.131.
With ATAGCTGA, the “PBM E-score” value was 0.00854.
Turning to GATTTCCA, the “PBM E-score” value stood at 0.0947.
With AAACCAGG, the “PBM E-score” value is -0.0663.
Consider ACCCTCAC, for which the “PBM E-score” value is -0.112.
For GGAAGATA, the “PBM E-score” value is 0.13.
To CGCACCTC belongs -0.183.
